# The whole screen tested about 390,000 compounds, of which about 4,000 (1%) were called active. The shares of active, inactive and inconclusive entries below differ from those in the screen. Calls follow the shape of the dose curve; as a rule, active = well fitted inhibition curve with a large enough effect; inconclusive = small, poorly fitted or top-dose-only effect, or another doubt; inactive = no such curve, though single readings can be large or run the other way. Potencies of inconclusive entries are doubtful fits and often do not repeat. More than one record can exist for a structure, and the calls need not agree.
# Sequences of proteins named here, by UniProt entry; tags and fusion partners are left off. A change or cut given only in a name is not applied to a line headed by its entry.
# UniProt Q9UNA4: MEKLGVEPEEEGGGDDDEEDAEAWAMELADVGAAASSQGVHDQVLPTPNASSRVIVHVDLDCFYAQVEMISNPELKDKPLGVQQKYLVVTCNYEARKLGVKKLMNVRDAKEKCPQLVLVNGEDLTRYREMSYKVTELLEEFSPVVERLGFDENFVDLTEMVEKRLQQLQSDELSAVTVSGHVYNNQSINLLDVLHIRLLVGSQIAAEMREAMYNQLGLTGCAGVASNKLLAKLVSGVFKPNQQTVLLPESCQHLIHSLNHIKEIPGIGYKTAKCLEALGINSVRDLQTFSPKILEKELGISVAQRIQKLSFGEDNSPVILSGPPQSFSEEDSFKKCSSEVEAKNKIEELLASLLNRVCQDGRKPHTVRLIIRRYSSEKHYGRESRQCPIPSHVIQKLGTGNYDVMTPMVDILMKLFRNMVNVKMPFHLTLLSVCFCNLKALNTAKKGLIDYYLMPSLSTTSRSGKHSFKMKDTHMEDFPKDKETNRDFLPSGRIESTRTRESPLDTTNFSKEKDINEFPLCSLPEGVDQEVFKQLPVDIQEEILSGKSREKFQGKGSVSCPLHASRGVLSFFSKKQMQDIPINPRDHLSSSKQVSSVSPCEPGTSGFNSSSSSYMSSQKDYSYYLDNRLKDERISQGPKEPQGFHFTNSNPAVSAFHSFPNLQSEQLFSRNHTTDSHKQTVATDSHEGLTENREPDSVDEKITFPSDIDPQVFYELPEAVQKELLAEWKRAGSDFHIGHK
# Target: DNA polymerase iota (Homo sapiens) (UniProt Q9UNA4)
# Test: qHTS for Inhibitors of Polymerase Iota
# Settings: Pol iota fluorescent replication assay, 10 min; series mostly up to 115 µM
# Procedure, shortened: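 Pol iota at 10 nM preincubated 15 min with compounds at room temperature; reaction started with fluorescent substrate, 50 nM final. Fluorescence read kinetically at 0 and 10 min; buffer-only wells as negative control.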
# Potency is read from the fitted curve at half-maximal effect.
row,Compound,Potency
1,CCc1sc(-c2cc3cccc(OC)c3oc2=O)nc1-c1cc(C)ccc1C,"inconclusive: 100 µM [inhibitor, partial curve, poor fit]"
2,Cc1ccc(S(=O)(=O)N2CCN(c3ccnc(-c4cccs4)n3)CC2)cc1,inactive
3,CCC(C)CCN1C(N(C)C)=NC[C@@H]1Cc1ccccc1 (some centres not stated),"inconclusive: 44.7 µM [inhibitor, partial curve, poor fit]"
4,CC(C)COC(=O)/C(C#N)=C\c1ccc(-c2ccccc2Cl)o1,"inconclusive: 89.1 µM [inhibitor, single point]"
5,COc1ccccc1CNS(=O)(=O)c1cc(C(=O)Nc2cccc(C(F)(F)F)c2)ccc1F,inactive
6,COC(=O)c1ccc(CNC(=O)C2CCC(=O)N(CCCc3ccccc3)C2)cc1 (configuration not stated),"inconclusive: 79.4 µM [inhibitor, partial curve]"
7,O=C(COC(=O)CNC(=O)c1ccc([N+](=O)[O-])o1)Nc1ncc(Cl)cc1Cl,"inconclusive: 31.6 µM [inhibitor, full curve, poor fit]"
8,O=C(Nc1ccccc1)C(Cc1ccccc1)N1Cc2ccccc2C1=O (configuration not stated),"inconclusive: 89.1 µM [inhibitor, single point]"
9,CNc1cc(C(=O)O)nc2ccccc12,"inconclusive: 44.7 µM [inhibitor, partial curve, poor fit]"
10,CCS(=O)(=O)N1CCN(C(=O)c2ccco2)CC1,"inconclusive: 89.1 µM [inhibitor, single point]"
11,Cc1cc(C)nc(SCc2ccc(C(=O)N/N=C3\CCCC(=O)C3)cc2)n1,"inconclusive: 79.4 µM [inhibitor, single point]"
12,Cc1ccc(Cl)c2c1N[C@@H](c1ccc(C(=O)O)cc1)[C@H]1CC=C[C@@H]21,active: 31.6 µM
13,Cc1cccc(OCC(=O)Nc2c(C)ccc3nsnc23)c1C,inactive
14,CCc1ccc(S(=O)(=O)c2nnn3c2nc(N2CCC(C)CC2)c2cc(Cl)ccc23)cc1,"inconclusive: 89.1 µM [inhibitor, partial curve, poor fit]"
15,CCN(C(=S)Nc1cccnc1)c1cccc2ccccc12,"inconclusive: 11.2 µM [inhibitor, partial curve]"
16,COc1ccc(/C=N/NC(=O)c2cc(-c3cccn3C)n[nH]2)cc1OC,"inconclusive: 7.08 µM [inhibitor, full curve, poor fit]"
17,CC(=O)NC1=C(Nc2ccc(N(C)C)cc2)C(=O)c2ccccc2C1=O,"inconclusive: 31.6 µM [inhibitor, single point]"
18,CC1=C(C(=O)Nc2ccccc2C(=O)NCc2ccccc2)SCCO1,"inconclusive: 89.1 µM [inhibitor, partial curve, poor fit]"
19,Cc1ccc2c(c1)N(CCC(=O)NCc1ccc(F)cc1)C(=O)CO2,"inconclusive: 89.1 µM [inhibitor, single point]"
20,COc1cccc(-n2nc(C#N)c(Cl)cc2=O)c1,"inconclusive: 14.1 µM [inhibitor, partial curve, poor fit]"
21,Cc1ccc(-c2csc3nc4cc(C(=O)NC5CCC(O)CC5)ccc4c(=O)n23)cc1 (configuration not stated),"inconclusive: 7.94 µM [inhibitor, full curve, poor fit]"

row,Compound,Potency
1,O=C(COC(=O)c1cc(-c2cccc3ccccc23)nc2ccccc12)NC1CCS(=O)(=O)C1 (configuration not stated),"inconclusive: 112 µM [inhibitor, single point]"
2,Cc1cccc(CSc2ncc(CO)n2Cc2ccc(F)cc2)c1,"inconclusive: 89.1 µM [inhibitor, partial curve, poor fit]"
3,O=C(CSc1ncnc2sc3c(c12)CCC3)N1CCOCC1,active: 22.4 µM
4,O=C1c2cccc3c(N4CCCCC4)ccc(c23)C(=O)N1c1ccc(O)cc1,"inconclusive: 50.1 µM [inhibitor, partial curve]"
5,Cc1cccc(/C=N/Nc2ccc3ccccc3n2)c1,inactive
6,CCOC(=O)N1CCN(S(=O)(=O)c2ccc3c(c2)CC(C)N3C(C)=O)CC1 (configuration not stated),"inconclusive: 70.8 µM [inhibitor, partial curve]"
7,COc1ccc(NC(=S)NCc2ccc3c(c2)cc(C)n3C)cc1,"inconclusive: 70.8 µM [inhibitor, partial curve, poor fit]"
8,Oc1cccc2cc3cccc(O)c3c(O)c12,inactive
9,CC(=O)Nc1ccc(S(=O)(=O)c2cc(O)ccc2O)cc1,"inconclusive: 56.2 µM [inhibitor, partial curve, poor fit]"
10,Cc1cc(C)c2c(=O)cc(C(=O)Nc3sc4c(c3C(=O)NCc3ccccc3)CCCC4)oc2c1,inactive
11,COc1cccc(/C=C/C(=O)OCC(=O)NCc2ccco2)c1,"inconclusive: 44.7 µM [inhibitor, partial curve, poor fit]"
12,CN(C)c1ccc(/C=C/c2ccc3ccccc3[n+]2C)cc1,active: 39.8 µM
13,COc1ccc(-c2nn(-c3ccccc3)cc2CN(C)CCn2ccnc2C)c(F)c1,"inconclusive: 39.8 µM [inhibitor, single point]"
14,O=C(NCC(=O)N(CC1CCCO1)C(C(=O)NC1CCCC1)c1cccnc1)c1ccco1 (configuration not stated),"inconclusive: 2.82 µM [inhibitor, full curve, poor fit]"
15,Cc1cccc(N(C(=O)c2snc(C(N)=O)c2N)C(C(=O)NCC2CCCO2)c2ccc(N(C)C)cc2)c1C (configuration not stated),"inconclusive: 89.1 µM [inhibitor, partial curve, poor fit]"
16,[O-]/C(=C(\C(=S)NCc1ccco1)[n+]1ccccc1)c1ccccc1Br,"inconclusive: 112 µM [inhibitor, partial curve, poor fit]"
17,O=C(Cn1c(=O)[nH]c2ccsc2c1=O)N1CCN(c2ccc(F)cc2)CC1,"inconclusive: 15.8 µM [inhibitor, partial curve, poor fit]"
18,Cc1c(Cl)cnc(NC(=O)COC(=O)[C@@H](NC(=O)c2ccco2)C(C)C)c1Cl,"inconclusive: 22.4 µM [inhibitor, full curve]"
19,COc1ccccc1CNC(=O)CCNC(=O)Cn1cnc2ccccc2c1=O,inactive
20,Cc1ccc(NC(=S)NC(NC(=O)c2ccco2)C(Cl)(Cl)Cl)cc1 (configuration not stated),"inconclusive: 6.31 µM [inhibitor, partial curve, poor fit]"
21,Cc1ccc2nc(NC(=O)c3ccc(-c4nc5ccccc5s4)s3)sc2c1,"inconclusive: 89.1 µM [inhibitor, single point]"

row,Compound,Potency
1,CC1(C)CC(=O)/C(=C\c2cccc([N+](=O)[O-])c2)C(C)(C)N1,"inconclusive: 28.2 µM [inhibitor, partial curve, poor fit]"
2,CCCSc1ncccc1C(=O)O,inactive
3,O=C(NC1C(=O)NNC1c1ccccc1)c1ccccc1 (configuration not stated),inactive
4,N#Cc1cc2c(nc1SCC(O)CS(=O)(=O)Cc1ccc(Cl)cc1)CCCC2 (configuration not stated),"inconclusive: 39.8 µM [inhibitor, partial curve]"
5,CCCCOC(=O)c1ccc(NC(=O)c2cc(-c3ccccc3)on2)cc1,inactive
6,CC1=NN(c2nc(N)nc(/C(C#N)=C/c3ccc([N+](=O)[O-])o3)n2)C(C)(C)C1,"inconclusive: 44.7 µM [inhibitor, partial curve, poor fit]"
7,CCCNC(=O)c1ccc2c(=O)c(O)c(-c3cccc(Br)c3)[nH]c2c1,"inconclusive: 56.2 µM [inhibitor, partial curve, poor fit]"
8,CC(NC(=O)COC(=O)c1cc([N+](=O)[O-])ccc1N1CCOCC1)c1ccc(F)cc1 (configuration not stated),"inconclusive: 31.6 µM [inhibitor, full curve]"
9,CC1CCN(S(=O)(=O)c2ccc(N3CCCCS3(=O)=O)cc2)CC1,"inconclusive: 100 µM [inhibitor, partial curve, poor fit]"
10,O=C(Cc1cc(=O)oc2cc(O)ccc12)NCC1CCC(C(=O)O)CC1 (configuration not stated),inactive
11,O=C(CSc1nnc(-c2ccc(Cl)cc2)n1CC1CCCO1)NC1CCS(=O)(=O)C1 (configuration not stated),"inconclusive: 2.82 µM [inhibitor, full curve, poor fit]"
12,COc1ccc2c(c1)Cc1sc(NC(=O)c3ccccc3Br)nc1-2,"inconclusive: 10 µM [inhibitor, full curve, poor fit]"
13,O=C(CSc1nc2ccccc2s1)c1cc2ccccc2o1,"inconclusive: 25.1 µM [inhibitor, single point]"
14,O=C(NCc1ccc(F)cc1)c1ccc(CS(=O)(=O)c2ccc(Cl)cc2)o1,inactive
15,NC(=O)c1ccsc1NC(=O)c1ccc(N2CCCC2=O)cc1,"inconclusive: 28.2 µM [inhibitor, single point]"
16,C#CCOCCOCCOCCNc1nc(N2CCN(C(=O)[C@H]([C@@H](C)CC)n3cc(CCCCN)nn3)CC2)nc(N2CCN(C(=O)[C@H]([C@@H](C)CC)n3cc(CCCN=C(N)N)nn3)CC2)n1,"inconclusive: 31.6 µM [inhibitor, partial curve, poor fit]"
17,COc1ccc(NC(=O)C2CCCN(c3nn4c(=O)cc(C)nc4s3)C2)c(OC)c1 (configuration not stated),"inconclusive: 100 µM [inhibitor, partial curve, poor fit]"
18,Cc1cc2ccccc2n1CCNC(=O)C(C)Oc1ccccc1 (configuration not stated),"inconclusive: 79.4 µM [inhibitor, partial curve, poor fit]"
19,Cc1ccnc(NS(=O)(=O)c2ccc(NC(=O)c3ccc(N4C(=O)CCC4=O)cc3)cc2)n1,"inconclusive: 112 µM [inhibitor, partial curve, poor fit]"
20,COc1ccc(/C=C/C(=O)OCC(=O)NCc2ccco2)cc1OC,active: 22.4 µM

# Structural class: the compounds so far containing a cyano group.
row,Compound,Potency
4,CC(C)COC(=O)/C(C#N)=C\c1ccc(-c2ccccc2Cl)o1,"inconclusive: 89.1 µM [inhibitor, single point]"
20,COc1cccc(-n2nc(C#N)c(Cl)cc2=O)c1,"inconclusive: 14.1 µM [inhibitor, partial curve, poor fit]"
4,N#Cc1cc2c(nc1SCC(O)CS(=O)(=O)Cc1ccc(Cl)cc1)CCCC2 (configuration not stated),"inconclusive: 39.8 µM [inhibitor, partial curve]"
6,CC1=NN(c2nc(N)nc(/C(C#N)=C/c3ccc([N+](=O)[O-])o3)n2)C(C)(C)C1,"inconclusive: 44.7 µM [inhibitor, partial curve, poor fit]"

# — PubChem BioAssay AID588590 (National Center for Advancing Translational Sciences (NCATS), 2011)
